Measured values from paper PMC9400329.
Results are given in words; binding and its absence hold for the method and conditions named. Binding seen in cells or lysates may run through a third protein. Some entries that bind do so weakly or less than the wild type.

Chains of the proteins cited; added tags and fusions are not shown.
UniProt P25490: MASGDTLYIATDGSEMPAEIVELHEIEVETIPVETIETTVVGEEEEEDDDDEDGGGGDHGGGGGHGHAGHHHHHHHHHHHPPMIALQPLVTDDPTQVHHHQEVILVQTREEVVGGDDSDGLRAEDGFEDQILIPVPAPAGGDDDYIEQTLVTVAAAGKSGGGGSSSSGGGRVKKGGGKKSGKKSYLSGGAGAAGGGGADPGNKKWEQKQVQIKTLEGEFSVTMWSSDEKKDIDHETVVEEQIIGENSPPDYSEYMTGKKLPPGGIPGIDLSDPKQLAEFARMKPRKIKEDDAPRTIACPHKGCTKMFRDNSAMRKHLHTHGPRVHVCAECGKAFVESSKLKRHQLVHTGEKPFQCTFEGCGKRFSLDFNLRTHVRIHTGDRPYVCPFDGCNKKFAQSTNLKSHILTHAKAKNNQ
UniProt Q09472: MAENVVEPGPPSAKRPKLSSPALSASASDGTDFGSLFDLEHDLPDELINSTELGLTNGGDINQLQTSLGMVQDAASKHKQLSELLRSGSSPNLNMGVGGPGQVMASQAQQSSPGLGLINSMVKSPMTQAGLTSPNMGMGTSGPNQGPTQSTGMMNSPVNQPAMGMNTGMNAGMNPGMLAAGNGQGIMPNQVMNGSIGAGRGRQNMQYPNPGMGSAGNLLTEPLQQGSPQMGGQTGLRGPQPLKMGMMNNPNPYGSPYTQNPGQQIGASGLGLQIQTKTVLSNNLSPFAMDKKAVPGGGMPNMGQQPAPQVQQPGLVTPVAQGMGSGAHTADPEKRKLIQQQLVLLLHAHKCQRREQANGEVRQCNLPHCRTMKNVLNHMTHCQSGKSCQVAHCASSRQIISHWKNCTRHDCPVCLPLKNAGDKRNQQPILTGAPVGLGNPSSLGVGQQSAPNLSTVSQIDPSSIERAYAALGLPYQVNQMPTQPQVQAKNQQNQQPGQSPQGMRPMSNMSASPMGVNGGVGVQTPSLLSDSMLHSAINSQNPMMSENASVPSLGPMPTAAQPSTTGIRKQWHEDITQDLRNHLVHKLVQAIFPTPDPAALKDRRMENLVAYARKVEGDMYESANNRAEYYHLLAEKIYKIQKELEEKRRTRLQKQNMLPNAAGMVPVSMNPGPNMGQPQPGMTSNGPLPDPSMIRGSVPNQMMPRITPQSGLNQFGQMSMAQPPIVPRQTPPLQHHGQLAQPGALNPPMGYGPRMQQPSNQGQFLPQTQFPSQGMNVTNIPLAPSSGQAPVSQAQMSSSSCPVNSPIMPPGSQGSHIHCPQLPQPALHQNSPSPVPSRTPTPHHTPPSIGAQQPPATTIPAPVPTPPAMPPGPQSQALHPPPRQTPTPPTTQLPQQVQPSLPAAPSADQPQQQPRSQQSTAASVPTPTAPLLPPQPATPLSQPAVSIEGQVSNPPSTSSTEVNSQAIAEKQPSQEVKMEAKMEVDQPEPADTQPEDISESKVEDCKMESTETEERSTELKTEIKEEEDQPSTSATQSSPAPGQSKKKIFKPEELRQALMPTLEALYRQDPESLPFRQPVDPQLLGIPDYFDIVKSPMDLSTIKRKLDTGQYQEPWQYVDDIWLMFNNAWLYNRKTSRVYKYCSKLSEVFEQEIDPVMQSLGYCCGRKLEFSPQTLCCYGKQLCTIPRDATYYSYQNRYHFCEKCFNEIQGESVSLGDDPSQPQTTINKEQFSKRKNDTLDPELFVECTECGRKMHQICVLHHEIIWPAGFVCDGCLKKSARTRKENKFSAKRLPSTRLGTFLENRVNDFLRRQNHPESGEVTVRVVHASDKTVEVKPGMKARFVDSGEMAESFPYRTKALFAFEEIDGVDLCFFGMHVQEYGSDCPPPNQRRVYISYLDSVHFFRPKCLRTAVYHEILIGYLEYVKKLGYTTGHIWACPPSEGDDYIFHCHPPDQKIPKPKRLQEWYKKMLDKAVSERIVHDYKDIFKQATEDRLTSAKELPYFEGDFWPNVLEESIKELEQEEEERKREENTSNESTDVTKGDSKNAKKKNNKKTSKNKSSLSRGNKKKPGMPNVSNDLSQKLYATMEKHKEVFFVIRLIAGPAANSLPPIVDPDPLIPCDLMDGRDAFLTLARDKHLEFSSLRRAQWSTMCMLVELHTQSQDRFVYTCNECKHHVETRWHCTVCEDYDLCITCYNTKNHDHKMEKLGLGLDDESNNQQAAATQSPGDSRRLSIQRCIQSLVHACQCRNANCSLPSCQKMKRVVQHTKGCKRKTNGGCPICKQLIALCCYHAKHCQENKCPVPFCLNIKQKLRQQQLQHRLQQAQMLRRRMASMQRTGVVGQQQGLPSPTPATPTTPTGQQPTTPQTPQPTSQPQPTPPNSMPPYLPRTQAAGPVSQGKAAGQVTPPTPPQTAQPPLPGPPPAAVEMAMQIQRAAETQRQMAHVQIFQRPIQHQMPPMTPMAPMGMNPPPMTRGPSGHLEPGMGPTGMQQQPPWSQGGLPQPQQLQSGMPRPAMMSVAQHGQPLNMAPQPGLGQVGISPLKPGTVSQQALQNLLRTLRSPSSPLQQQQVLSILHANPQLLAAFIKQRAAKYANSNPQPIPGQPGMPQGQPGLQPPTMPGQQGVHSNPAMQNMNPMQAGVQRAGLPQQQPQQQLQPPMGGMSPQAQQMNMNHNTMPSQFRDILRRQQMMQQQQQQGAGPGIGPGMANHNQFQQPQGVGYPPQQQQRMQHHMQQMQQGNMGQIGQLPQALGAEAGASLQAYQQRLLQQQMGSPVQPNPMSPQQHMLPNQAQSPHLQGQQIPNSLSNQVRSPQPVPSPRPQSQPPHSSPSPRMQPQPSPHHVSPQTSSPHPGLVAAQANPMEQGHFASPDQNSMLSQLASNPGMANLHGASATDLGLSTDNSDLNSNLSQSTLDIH

Target: YY1-myc (UniProt P25490)
Experiment: co-IP; Hep3B (control or CRNDE-silenced) and Huh7 (control or CRNDE-overexpressing) cells transfected with YY1-myc; lysate precipitated with anti-Myc antibody, 10% SDS-PAGE, western blot for p300

binding: binds
Substance: p300 (from UniProt Q09472 1-2414)
